Laboratory results: patent publication US11987570B1, “10-(2-hydroxyethyl)-9-(2-hydroxypyridin-3-yl)-3,4,6,7,9,10-hexahydroacridine-1,8(2H,5H)-dione as an antimicrobial compound” (KING FAISAL UNIVERSITY, priority 2023, dated 2024)
At least one structure is not confirmed: it was looked up by name or label, or the drawing left a doubt.

Assays:
Type in all cases: cell-based
Staphylococcus aureus = test: Antimicrobial screening by agar dilution, Staphylococcus aureus; conditions: St. Aereus
Procedure: (§1) The antibacterial properties of the synthesized compound (10-(2-hydroxyethyl)-9-(2-hydroxypyridin-3-yl)-3,4,6,7,9,10-hexahydroacridine-1,8(2H,5H)-dione) were studied by the method of agar dilution. Test solutions of each compound was prepared in concentration of 1% using dimethylformamide as a solvent then they are diluted in physiological solution to obtain the final experimental dilutions 1:100, 1:200, 1:400, 1:800. The effect of these substances are compared with furacillin in a controllable study. The testing microbes used were gram positive bacteria Staphylococcus aureus, gram negative bacteria Pseudomonas aeruginosa and Escherichia coli and Candida albicans fungus. The experiments used for this survey were meat-pentonlu agar (EPA) for cultivation of bacteria and Saburo environment for the fungus. Each experiment used 1 mL of test solution on each plate […]. Two drops of emulsified with microbes feel were added. All experimental samples were taken from the agar after 10, 20, 40, 60 minutes in the environment on the basis of Patrk planted. The bacteria were cultivated at a temperature of 37° C. for 1 day and the mushroom was kept in a thermostat for 2 hours at a temperature of 28° C. Then results were checked.

Escherichia coli = test: Antimicrobial screening by agar dilution, Escherichia coli; conditions: E. Coli
Procedure: as §1

Pseudomonas aeruginosa = test: Antimicrobial screening by agar dilution, Pseudomonas aeruginosa; conditions: Ps. Aeroqonaza
Procedure: as §1

Candida albicans = test: Antimicrobial screening by agar dilution, Candida albicans
Procedure: as §1

[1] = dilution rate 1:100, exposure time 10 min
[2] = dilution rate 1:100, exposure time 20 min
[3] = dilution rate 1:100, exposure time 40 min
[4] = dilution rate 1:100, exposure time 60 min
[5] = dilution rate 1:200, exposure time 10 min
[6] = dilution rate 1:200, exposure time 20 min
[7] = dilution rate 1:200, exposure time 40 min
[8] = dilution rate 1:200, exposure time 60 min
[9] = dilution rate 1:400, exposure time 10 min
[10] = dilution rate 1:400, exposure time 20 min
[11] = dilution rate 1:400, exposure time 40 min
[12] = dilution rate 1:400, exposure time 60 min
[13] = dilution rate 1:800, exposure time 10 min
[14] = dilution rate 1:800, exposure time 20 min
[15] = dilution rate 1:800, exposure time 40 min
[16] = dilution rate 1:800, exposure time 60 min

## NC(=O)N/N=C/c1ccc([N+](=O)[O-])o1 [Furacilin]
Staphylococcus aureus; [1]
  antimicrobial activity: −
Staphylococcus aureus; [2]
  antimicrobial activity: −
Staphylococcus aureus; [3]
  antimicrobial activity: −
Staphylococcus aureus; [4]
  antimicrobial activity: −
Staphylococcus aureus; [5]
  antimicrobial activity: +
Staphylococcus aureus; [6]
  antimicrobial activity: +
Staphylococcus aureus; [7]
  antimicrobial activity: +
Staphylococcus aureus; [8]
  antimicrobial activity: +
Staphylococcus aureus; [9]
  antimicrobial activity: +
Staphylococcus aureus; [10]
  antimicrobial activity: +
Staphylococcus aureus; [11]
  antimicrobial activity: +
Staphylococcus aureus; [12]
  antimicrobial activity: +
Staphylococcus aureus; [13]
  antimicrobial activity: +
Staphylococcus aureus; [14]
  antimicrobial activity: +
Staphylococcus aureus; [15]
  antimicrobial activity: +
Staphylococcus aureus; [16]
  antimicrobial activity: +
Escherichia coli; [1]
  antimicrobial activity: −
Escherichia coli; [2]
  antimicrobial activity: −
Escherichia coli; [3]
  antimicrobial activity: −
Escherichia coli; [4]
  antimicrobial activity: −
Escherichia coli; [5]
  antimicrobial activity: +
Escherichia coli; [6]
  antimicrobial activity: +
Escherichia coli; [7]
  antimicrobial activity: +
Escherichia coli; [8]
  antimicrobial activity: +
Escherichia coli; [9]
  antimicrobial activity: +
Escherichia coli; [10]
  antimicrobial activity: +
Escherichia coli; [11]
  antimicrobial activity: +
Escherichia coli; [12]
  antimicrobial activity: +
Escherichia coli; [13]
  antimicrobial activity: +
Escherichia coli; [14]
  antimicrobial activity: +
Escherichia coli; [15]
  antimicrobial activity: +
Escherichia coli; [16]
  antimicrobial activity: +
Pseudomonas aeruginosa; [1]
  antimicrobial activity: +
Pseudomonas aeruginosa; [2]
  antimicrobial activity: +
Pseudomonas aeruginosa; [3]
  antimicrobial activity: +
Pseudomonas aeruginosa; [4]
  antimicrobial activity: +
Pseudomonas aeruginosa; [5]
  antimicrobial activity: +
Pseudomonas aeruginosa; [6]
  antimicrobial activity: +
Pseudomonas aeruginosa; [7]
  antimicrobial activity: +
Pseudomonas aeruginosa; [8]
  antimicrobial activity: +
Pseudomonas aeruginosa; [9]
  antimicrobial activity: +
Pseudomonas aeruginosa; [10]
  antimicrobial activity: +
Pseudomonas aeruginosa; [11]
  antimicrobial activity: +
Pseudomonas aeruginosa; [12]
  antimicrobial activity: +
Pseudomonas aeruginosa; [13]
  antimicrobial activity: +
Pseudomonas aeruginosa; [14]
  antimicrobial activity: +
Pseudomonas aeruginosa; [15]
  antimicrobial activity: +
Pseudomonas aeruginosa; [16]
  antimicrobial activity: +
Candida albicans; [1]
  antimicrobial activity: −
Candida albicans; [2]
  antimicrobial activity: −
Candida albicans; [3]
  antimicrobial activity: +
Candida albicans; [4]
  antimicrobial activity: +
Candida albicans; [5]
  antimicrobial activity: +
Candida albicans; [6]
  antimicrobial activity: +
Candida albicans; [7]
  antimicrobial activity: +
Candida albicans; [8]
  antimicrobial activity: +
Candida albicans; [9]
  antimicrobial activity: +
Candida albicans; [10]
  antimicrobial activity: +
Candida albicans; [11]
  antimicrobial activity: +
Candida albicans; [12]
  antimicrobial activity: +
Candida albicans; [13]
  antimicrobial activity: +
Candida albicans; [14]
  antimicrobial activity: +
Candida albicans; [15]
  antimicrobial activity: +
Candida albicans; [16]
  antimicrobial activity: +
